Binding data for three substances are collected here from PMC3900708.

Sequences of proteins named here, by UniProt entry; tags and fusion partners are left off. A change or cut given only in a name is not applied to a line headed by its entry.
UniProt P12003: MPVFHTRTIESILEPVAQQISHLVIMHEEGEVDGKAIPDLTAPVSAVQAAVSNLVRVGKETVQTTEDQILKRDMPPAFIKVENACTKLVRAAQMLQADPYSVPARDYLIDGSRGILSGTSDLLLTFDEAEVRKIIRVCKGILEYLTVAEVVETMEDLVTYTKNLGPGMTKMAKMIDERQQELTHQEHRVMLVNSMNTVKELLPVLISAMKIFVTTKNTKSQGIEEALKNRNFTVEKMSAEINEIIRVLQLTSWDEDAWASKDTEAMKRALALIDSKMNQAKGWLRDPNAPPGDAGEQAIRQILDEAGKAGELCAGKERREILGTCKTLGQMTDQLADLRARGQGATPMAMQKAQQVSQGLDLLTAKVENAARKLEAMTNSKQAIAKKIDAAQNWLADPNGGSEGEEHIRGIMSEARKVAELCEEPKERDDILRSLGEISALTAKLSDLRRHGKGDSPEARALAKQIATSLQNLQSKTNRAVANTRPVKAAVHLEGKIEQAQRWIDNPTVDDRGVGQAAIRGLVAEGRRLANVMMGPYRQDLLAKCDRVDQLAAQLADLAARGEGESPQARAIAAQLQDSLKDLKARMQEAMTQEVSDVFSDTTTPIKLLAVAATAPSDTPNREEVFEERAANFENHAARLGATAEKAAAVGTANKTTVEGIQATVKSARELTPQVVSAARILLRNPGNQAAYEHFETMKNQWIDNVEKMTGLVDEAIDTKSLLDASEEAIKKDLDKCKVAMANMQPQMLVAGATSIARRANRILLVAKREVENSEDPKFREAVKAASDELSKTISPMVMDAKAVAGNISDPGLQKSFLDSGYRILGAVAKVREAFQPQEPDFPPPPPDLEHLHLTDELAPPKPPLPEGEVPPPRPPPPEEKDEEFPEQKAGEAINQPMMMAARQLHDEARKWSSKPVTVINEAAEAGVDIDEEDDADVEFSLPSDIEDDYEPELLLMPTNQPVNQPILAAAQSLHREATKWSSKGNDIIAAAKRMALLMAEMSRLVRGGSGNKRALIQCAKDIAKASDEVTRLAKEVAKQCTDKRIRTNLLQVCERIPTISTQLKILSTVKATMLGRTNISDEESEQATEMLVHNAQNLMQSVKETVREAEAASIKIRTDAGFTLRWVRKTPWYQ
UniProt P20339: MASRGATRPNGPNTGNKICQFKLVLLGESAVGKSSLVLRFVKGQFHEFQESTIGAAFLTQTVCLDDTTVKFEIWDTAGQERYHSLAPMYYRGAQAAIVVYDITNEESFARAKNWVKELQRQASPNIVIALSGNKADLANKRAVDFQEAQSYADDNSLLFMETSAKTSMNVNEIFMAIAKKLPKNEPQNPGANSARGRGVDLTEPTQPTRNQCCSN

These are yes or no findings as the source states them, for the method shown. For some assays here: Binding calls can cover weak binding; strength is not graded here. For some assays here: Binding seen in cells or lysates may run through a third protein.

Test [1] concerns the target His-vin1-1066 (full length) (UniProt P12003). Kind of test: pull-down; GST-Rab5 (Q79L) incubated with purified His-vinculin deletion mutants, His-pull-down; beads assayed by western blot; both purified. (In general: A western blot detects proteins with antibodies after separation by electrophoresis.)
Another test has as its target His-vin881-1066 (UniProt P12003). Described as above.
The next test deals with GFP-vinculinA50I (UniProt P12003). Nature of the test: co-IP; GFP-vinculin (WT or mutant) coexpressed with HA-Rab5 (WT) in Cos-7, precipitated with anti-GFP; western blot with anti-GFP and anti-HA.
The target in another test is GST-Rab5 (S34N) (UniProt P20339). Nature of the test: pull-down; 5 µg GST-Rab5 (Q79L or S34N) on glutathione beads, incubated with purified His-vinculin 60 min at 4°C; wash buffer 20 mM HEPES, 100 mM NaCl, 5 mM MgCl2, 1 mM DTT, pH 7.6; western blot; both purified.
The target in the next test is GST-Rab5 (Q79L) (UniProt P20339). The description is as above.

On to “GST-Rab5 (Q79L) (from UniProt P20339 1-215)”, for which the values for the binding entry (in test [1]; with His-vin881-1066) were “binds” and “no binding”, respectively.
Take “HA-Rab5 (WT) (from UniProt P20339 1-215)”: the binding entry with GFP-vinculinA50I was “no binding”.
On to “His-vin1-1066 (full length) (from UniProt P12003-2)”, for which the binding entry with GST-Rab5 (S34N) and with GST-Rab5 (Q79L) was “binds” in each case.
